# Test results taken from PMC7862700.
# This is one part of the list. Construct or isoform of the protein are uncertain.
# Molecular target: T1, ELF2 (UniProt Q15723)
# T1 sequence: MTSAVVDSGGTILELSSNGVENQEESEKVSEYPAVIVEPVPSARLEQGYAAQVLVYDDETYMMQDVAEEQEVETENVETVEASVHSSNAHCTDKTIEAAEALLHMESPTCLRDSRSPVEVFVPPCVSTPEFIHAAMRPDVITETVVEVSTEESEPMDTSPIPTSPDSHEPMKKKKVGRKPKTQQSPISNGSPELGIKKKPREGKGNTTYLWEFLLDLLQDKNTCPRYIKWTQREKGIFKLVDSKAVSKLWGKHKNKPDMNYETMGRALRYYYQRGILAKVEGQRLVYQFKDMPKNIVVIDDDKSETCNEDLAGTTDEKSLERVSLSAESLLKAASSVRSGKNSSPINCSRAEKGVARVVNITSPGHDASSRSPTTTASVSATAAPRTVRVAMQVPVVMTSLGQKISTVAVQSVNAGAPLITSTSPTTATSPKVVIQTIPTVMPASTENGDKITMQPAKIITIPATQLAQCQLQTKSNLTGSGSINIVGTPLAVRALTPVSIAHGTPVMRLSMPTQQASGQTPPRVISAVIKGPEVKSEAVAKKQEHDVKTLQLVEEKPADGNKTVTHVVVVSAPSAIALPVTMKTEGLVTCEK
# Test: DAPPL (digital affinity profiling via proximity ligation, sequencing)
# Conditions: 10 mM Tris-HCl pH 7.5, 50 mM NaCl, 1 mM DTT, 4% glycerol, room temperature, 30 min; GST-TFs on glutathione beads, 16-mer random dsDNA library, 0.1% …; high values mean tight binding; double strand, one strand shown; scale: fold enrichment (6-mer frequency, TF over GST control)
row,Sequence,binding signal
1,CCCTAC,1.46
2,CCCGAC,1.24
3,AACCAT,1.12
4,GATTAC,1.16
5,TTTTGC,1.39
6,ACCGAA,1.03
7,TCTAAA,1.14
8,GAATCC,1.17
9,TCCCTA,1.31
10,AGCTAC,1.11
11,AGGTAT,1.02
12,GCTATA,1.08
13,TAAGCT,1.12
14,TCTACT,1.42
15,AAAAAA,1.34
16,ATGCAA,1.17
17,ATACCT,1.04
18,GAACCT,1.15
19,TATTGG,1.14
20,CCTGGG,1.11

# Taken from above.
# In binding signal, GAATCC shows 1.17
# In binding signal, TATTGG shows 1.14

# (listing goes on)

row,Sequence,binding signal
1,TAAAAG,1.15
2,CTGAAT,1.34
3,ACTAGC,1.17
4,CGGCTC,1.24
5,GCGATG,1.18
6,TATCTC,1.2
7,GATGCC,1.25
8,ATTACG,1.21
9,AAAATC,1.15
10,GCTCAG,1.09
11,ATTTAT,1.42
12,ATGGTA,1.29
13,TTCATA,1.14
14,ACCTAC,1.16
15,ATCGTC,0.984
16,TTACAC,1.24
17,ACAATA,1.23
18,TCAATA,1.14
19,TTTAGC,1.05
20,CTCCGG,1.69
